Some of these results come from one statement about several compounds together.
Test system: MEFs
Assay: XEN-like colony formation from fibroblasts (stage 1)
Assay type: cell-based, mouse
Conditions: versus VC6TF with 20 μM CHIR99021, 16 days

## CC(C)N(CCCNC(=O)Nc1ccc(C(C)(C)C)cc1)C[C@H]1O[C@@H](n2ccc3c(N)ncnc32)[C@H](O)[C@@H]1O [EPZ004777, 1-(3-((((2R,3S,4R,5R)-5-(4-amino-7H-pyrrolo[2,3-d]pyrimidin-7-yl)-3,4-dihydroxytetrahydrofuran-2-yl)methyl)(isopropyl)amino)propyl)-3-(4-(tert-butyl)phenyl)urea]
  formation of XEN-like colonies enhanced: 2 to 3 fold

Reference: US12180509B2, “Methods for reprograming non-pluripotent cells into pluripotent stem cells” (Beihao Stem Cell and Regenerative Medicine Research …, priority 2015, dated 2024)
